Counter-ions that a name gives are not always drawn. Some of these results come from one statement about several compounds together.
Assays:
[1] = biological target: T1, Recombinant human iNOS (Homo sapiens, UniProt P35228); experiment: Screen 2: recombinant human NO synthase inhibition, L-[3H]citrulline formation; format: biochemical; conditions: recombinant human iNOS expressed in E. coli; 60 min pre-incubation with NADPH; 3 μM [3H]arginine; read-out: IC50 against the iNOS enzyme
T1 construct: made in house

[2] = biological target: T2, Nitric oxide synthase (Mus musculus, UniProt P29477); experiment: Screen 1: nitric oxide synthase inhibition, 3H-L-arginine to 3H-L-citrulline conversion, lysate of induced J774A-1 cells; format: biochemical, murine; conditions: enzyme from LPS/IFNg-induced J774A-1 macrophage lysate; 1 hour at room temperature; read-out: IC50 (concentration of drug substance which gives 50% enzyme inhibition in the assay)
T2 construct: endogenous in cells; host or cells: J774A-1 murine macrophage cell line, induced with LPS and IFNg; crude cell lysate
Method: The activity of compounds of formula (I), or a pharmaceutically acceptable salt thereof, may be screened for nitric oxide synthase inhibiting activity by a procedure based on that of Förstermann et al., Eur. J. Pharm., 1992, 225, 161–165. Nitric oxide synthase converts ^3H-L-arginine into ^3H-L-citrulline which can be separated by cation exchange chromatography and quantified by liquid scintillation counting.
Enzyme is prepared, after induction, from the cultured murine macrophage cell line J774A-1 (obtained from the laboratories of the Imperial Cancer Research Fund). J774A-1 cells are cultured in Dulbeccos Modified Eagles Medium (DMEM) supplemented with 10% foetal bovine serum, 4 mM L-glutamine and antibiotics (100 units/nl penicillin G, […] streptomycin & […] ainphotericin B). Cells are routinely grown in […] flasks containing 35 ml medium kept at 37° C. and in a humidified atmosphere containing 5% CO2.
Nitric oxide synthase is produced by cells in response to interferon-g (IFNg) and lipopolysaccharide (LPS). The medium from confluent culture flasks is removed and replaced with 25 ml (per flask) of fresh medium containing 1 mg/ml LPS and 10 units/ml IFNg. After a period of 17–20 hours in culture, harvesting of cells is accomplished by scraping the cell sheet from the flask surface into the culture medium. Cells are collected by centrifugation (1000 g for 10 minutes) and lysate prepared by adding to the cell pellet a solution containing 50 mM Tris-HCl (pH 7.5 at 20° C.), 10% (v/v) glycerol, 0.1% (v/v) Triton-X-100, 0.1 mM dithiothreitol and a cocktail of protease inhibitors comprising leupeptin (2 mg/ml), soya bean trypsin inhibitor (10 mg/ml), aprotinin (5 mg/ml) and phenylmethylsulphonyl fluoride (50 mg/ml).
For the assay, 25 μl of substrate cocktail (50 mM Tris-HCl (H 7.5 at 20° C.), 400 μM NADPH, 20 μM flavin adenine dinucleotide, 20 μM flavin mononucleotide, 4 μM tetrahydrobiopterin, 12 μM L-arginine and 0.025 mCiL-[^3H] arginine) is added to wells of a 96 well filter plate (0.45 μM pore size) containing 25 μl of a solution of test compound in 50 mM Tris-HCl. The reaction is started by adding 50 μl of cell lysate (prepared as above) and after incubation for 1 hour at room temperature is terminated by addition of 50 μl of an aqueous solution of 3 mM nitroarginine and 21 mM EDTA.
Labelled L-citrulline is separated from labelled L-arginine using Dowex AG-50W. 150 μl of a 25% aqueous slurry of Dowex 50W (Na^+ form) is added to the assay after which the whole is filtered into 96 well plates. 75 μl of filtrate is sampled and added to wells of 96 well plates containing solid scintillant. After allowing the samples to dry the L-citrulline is quantified by scintillation counting.
In a typical experiment basal activity is 300 dpm per 75 μl sample which is increased to 1900 dpm in the reagent controls. Compound activity is expressed as IC50 (the concentration of drug substance which gives 50% enzyme inhibition in the assay) and ainlinoguanidine, which gives an IC50 (50% inhibitory concentration) of 10 μM, is tested as a standard to verify the procedure. Compounds are tested at a range of concentrations and from the inhibitions is obtained IC50 values are calculated. Compounds that inhibit the enzyme by at least 25% at 100 μM are classed as being active and are subjected to at least one retest.

| SMILES | IC50 [1] | IC50 [2] |
| --- | --- | --- |
| N#Cc1cc(F)c(Cl)cc1O[C@H](CN)c1ccccc1 [Example 1, 2-[[(1S)-2-Amino-1-phenylethyl]oxy]-4-chloro-5-fluorobenzonitrile (E)-butenedioate] | < 10 µM | < 10 µM |
| Cc1ccc(C#N)c(S[C@H](CN)c2ccccc2)n1 [Example 2, 2-[[(1S)-2-Amino-1-phenylethyl]thio]-6-methyl-3-pyridinecarbonitrile hydrochloride] | < 10 µM | < 10 µM |
| NCC(Sc1cc(Cl)ccc1Cl)c1ccccc1 (centres unmarked) [Example 3, 2-[(2,5-Dichlorophenyl)thio]-2-phenylethylamine hydrochloride] | < 10 µM | < 10 µM |
| N#Cc1ccc(Cl)cc1S[C@H](CN)c1ccccc1 [Example 4, 2-[[(1S)-2-Amino-1-phenylethyl]thio]-4-chlorobenzonitrile hydrochloride] | < 10 µM | < 10 µM |
| CC(=N)NCC(Oc1cc(Cl)c(F)cc1C#N)c1ccccc1.Cl (centres unmarked) [Example 5, N-[2-(5-Chloro-2-cyano-4-fluorophenoxy)-2-phenylethyl]-ethanimidamide hydrochloride] | < 10 µM | < 10 µM |
| N#Cc1ccc(C(F)(F)F)nc1S[C@H](CN)c1ccccc1 [Example 7, 2-[[(1S)-2-Amino-1-phenylethyl]thio]-6-(trifluoromethyl)-3-piridinecarbonitrile] | < 10 µM | < 10 µM |
| COc1ccc(C#N)c(S[C@H](CN)c2ccccc2)c1 [Example 8, 2-[[(1S)-2-Amino-1-phenylethyl]thio]-4-methoxybenzonitrile hydrochloride] | < 10 µM | < 10 µM |
| CNC[C@@H](Sc1cc(Cl)ccc1C#N)c1ccccc1 [Example 9, 4-Chloro-2-[[(1S)-2-(methylamino)-1-phenylethyl]thio]benzonitrile hydrochloride] | < 10 µM | < 10 µM |
| N#Cc1cc(F)c(Cl)cc1O[C@H](CN)c1ccon1 [Example 10, 2-[[(1R)-2-Amino-1-(3-isoxazolyl)ethyl]oxy]-4-chloro-5-fluorobenzonitrile ethanedioate] | < 10 µM | < 10 µM |
| N#Cc1ccc(Cl)cc1SC(CN)c1cccnc1 (centres unmarked) [Example 11, 2-[[2-Amino-1-(3-pyridinyl)ethyl]thio]-4-chlorobenzonitrile] | < 10 µM | < 10 µM |

From US7223794B2, “Arylheteroalkylamine derivatives and their use as inhibitors of nitric oxide synthase” (AstraZeneca AB, priority 2001, dated 2007)
